The results in this text go back to PMC10705702.

This assay addresses T1, Iroquois-Homeobox 4 (IRX4) (human (endogenous in LNCaP)) (UniProt P78413).
T1 sequence: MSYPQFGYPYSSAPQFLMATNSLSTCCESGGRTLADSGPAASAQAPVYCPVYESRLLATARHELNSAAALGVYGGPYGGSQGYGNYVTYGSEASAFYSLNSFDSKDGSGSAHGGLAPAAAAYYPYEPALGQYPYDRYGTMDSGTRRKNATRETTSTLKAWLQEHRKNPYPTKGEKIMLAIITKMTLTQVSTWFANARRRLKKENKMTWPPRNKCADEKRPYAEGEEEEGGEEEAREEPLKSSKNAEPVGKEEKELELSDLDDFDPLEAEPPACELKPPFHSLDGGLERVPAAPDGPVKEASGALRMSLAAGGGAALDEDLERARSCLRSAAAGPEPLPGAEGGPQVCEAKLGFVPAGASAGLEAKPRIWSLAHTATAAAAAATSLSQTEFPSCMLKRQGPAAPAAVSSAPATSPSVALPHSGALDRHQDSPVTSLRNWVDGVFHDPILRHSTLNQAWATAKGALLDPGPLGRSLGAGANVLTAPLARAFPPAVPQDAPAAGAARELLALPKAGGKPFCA
Briefly: co-IP; independent IP with anti-IRX4 antibody from LNCaP nuclear enriched lysate, IgG control; Western blot with IRX4 and FOXA1 antibodies. (A western blot detects proteins with antibodies after separation by electrophoresis.)

These are yes or no findings as the source states them, for the method shown. Binding seen in cells or lysates may run through a third protein. Some binding calls cover weakened binding; strength is not graded here.

B1: FOXA1, also known as hepatocyte nuclear factor 3α (HNF-3α) (protein, UniProt P55317 1-472)
chain: MLGTVKMEGHETSDWNSYYADTQEAYSSVPVSNMNSGLGSMNSMNTYMTMNTMTTSGNMTPASFNMSYANPGLGAGLSPGAVAGMPGGSAGAMNSMTAAGVTAMGTALSPSGMGAMGAQQAASMNGLGPYAAAMNPCMSPMAYAPSNLGRSRAGGGGDAKTFKRSYPHAKPPYSYISLITMAIQQAPSKMLTLSEIYQWIMDLFPYYRQNQQRWQNSIRHSLSFNDCFVKVARSPDKPGKGSYWTLHPDSGNMFENGCYLRRQKRFKCEKQPGAGGGGGSGSGGSGAKGGPESRKDPSGASNPSADSPLHRGVHGKTGQLEGAPAPGPAASPQTLDHSGATATGGASELKTPASSTAPPISSGPGALASVPASHPAHGLAPHESQLHLKGDPHYSFNHPFSINNLMSSSEQQHKLDFKAYEQALQYSPYGSTLPASLPLGSASVTTRSPIEPSALEPAYYQGVYSRPVLNTS
As to B1, the binding result is listed as “binds”.
